# Measurements published in ChEMBL document CHEMBL4513147, “CO-ADD screening of Armstrong State University (GA, USA) compounds”.
# The other results are listed elsewhere or left out. Results with a measured potency or affinity are listed apart.
# Test system: Acinetobacter baumannii
# Conditions: Concentration 32 ug.mL-1; ASSAY_TEST Inhibition of Bacterial Growth; detection method Absorption (OD600); MEDIA CAMHB; plate type 384well; NBS; CORNING #3640; time 18 hr
row,SMILES,Inhibition
1,COc1cccc2c1CCC(=Cc1ccco1)C2=O,3.07%
2,COc1ccc2c(c1)C(=O)C(=Cc1ccoc1)CC2,-3.92%
3,COc1cc2c(cc1OC)C(=O)C(=Cc1ccco1)CC2,-3.09%
4,Cc1ccc(C=C2CN(C(=O)OC(C)(C)C)C/C(=C\c3ccc(C)cc3C)C2=O)c(C)c1,-11.33%
5,COc1ccc2c(c1)CCC(=Cc1ccc(OC)nc1)C2=O,3.41%
6,CC(C)(C)OC(=O)N1CC(=Cc2ccco2)C(=O)/C(=C/c2ccco2)C1,-0.53%
7,COc1ccc2c(c1)C(=O)C(=Cc1cnccc1OC)CC2,-6.71%
8,COc1cccc2c1CCC(=Cc1ccoc1)C2=O,-6.87%
9,COc1ccc2c(c1)C(=O)C(=Cc1cccnc1)CC2,-4%
10,COc1ccc2c(c1)C(=O)C(=Cc1cncc(Br)c1)CC2,1.66%
11,COc1ccc2c(c1)CCC(=Cc1ccncc1)C2=O,1%
12,COc1ccc2c(c1)C(=O)C(=Cc1ccccn1)CC2,2.72%
13,COc1ccc2c(c1)C(=O)C(=Cc1cccnc1Cl)CC2.Cl,0.91%
14,COc1ccc2c(c1)C(=O)C(=Cc1ccco1)CC2,-0.23%
15,COc1ccc2c(c1)CCC(=Cc1cccnc1)C2=O,6.33%
16,COc1ccc(/C=C/C(=O)c2ccc(OCc3ccc(Br)cc3)cc2)cc1OC,-16.28%

row,SMILES,Inhibition
1,COc1cc2c(cc1OC)C(=O)C(=Cc1ccoc1)CC2,-5.62%
2,COc1ccc2c(c1)CCC(=Cc1ccoc1)C2=O,1.83%
3,COc1ccc2c(c1)CCC(=Cc1cccnc1Br)C2=O,-2.26%
4,COc1ccc2c(c1)C(=O)C(=Cc1cccnc1Cl)CC2,-0.01%
5,COc1ccc2c(c1)C(=O)C(=Cc1cccnc1OC)CC2,-2.61%
6,COc1ccc2c(c1)CCC(=Cc1cccnc1Cl)C2=O,-4.35%
7,COc1ccc2c(c1)CCC(=Cc1cnccc1OC)C2=O,-5.38%
8,COc1ccc2c(c1)C(O)C(=Cc1cccnc1Cl)CC2 (stereo unspecified),1.16%
9,COc1ccc2c(c1)C(=O)C(=Cc1cccc(C=C3CCc4ccc(OC)cc4C3=O)c1)CC2,-5.46%
10,COc1ccc2c(c1)CCC(=Cc1ccccn1)C2=O,2.14%
11,COc1ccc2c(c1)CCC(=Cc1cncc(Br)c1)C2=O,-2.32%
12,CC(C)(C)OC(=O)N1CC(=Cc2ccoc2)C(=O)/C(=C/c2ccoc2)C1,-7.55%
13,COc1ccc2c(c1)CCC(=Cc1ccco1)C2=O,5.68%
14,COc1ccc2c(c1)C(=O)C(=Cc1cccnc1Br)CC2,0.79%
15,COc1cccc2c1CCC(=Cc1cccc(C=C3CCc4c(OC)cccc4C3=O)c1)C2=O,-17.81%

# Rewritten tab-delimited: part of the list above
row	SMILES	Inhibition
14	COc1ccc2c(c1)C(=O)C(=Cc1ccco1)CC2	-0.23%
15	COc1ccc2c(c1)CCC(=Cc1cccnc1)C2=O	6.33%
